The values below come from the supplement of paper PMC12819154, “High-throughput peptide-centric local stability assay extends protein–ligand identification to membrane proteins, tissues and bacteria” (Nature Structural & Molecular Biology, 2025).

Protein sequences, listed by entry. Tags and fused reporters are not part of them. Lines headed by an entry give the natural chain unless they say otherwise; changes in a name come on top.
UniProt P76510: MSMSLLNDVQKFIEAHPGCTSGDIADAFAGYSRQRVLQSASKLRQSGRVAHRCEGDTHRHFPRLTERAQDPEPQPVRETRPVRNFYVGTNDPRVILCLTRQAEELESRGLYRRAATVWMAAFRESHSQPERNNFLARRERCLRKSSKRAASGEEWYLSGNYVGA
UniProt P76578: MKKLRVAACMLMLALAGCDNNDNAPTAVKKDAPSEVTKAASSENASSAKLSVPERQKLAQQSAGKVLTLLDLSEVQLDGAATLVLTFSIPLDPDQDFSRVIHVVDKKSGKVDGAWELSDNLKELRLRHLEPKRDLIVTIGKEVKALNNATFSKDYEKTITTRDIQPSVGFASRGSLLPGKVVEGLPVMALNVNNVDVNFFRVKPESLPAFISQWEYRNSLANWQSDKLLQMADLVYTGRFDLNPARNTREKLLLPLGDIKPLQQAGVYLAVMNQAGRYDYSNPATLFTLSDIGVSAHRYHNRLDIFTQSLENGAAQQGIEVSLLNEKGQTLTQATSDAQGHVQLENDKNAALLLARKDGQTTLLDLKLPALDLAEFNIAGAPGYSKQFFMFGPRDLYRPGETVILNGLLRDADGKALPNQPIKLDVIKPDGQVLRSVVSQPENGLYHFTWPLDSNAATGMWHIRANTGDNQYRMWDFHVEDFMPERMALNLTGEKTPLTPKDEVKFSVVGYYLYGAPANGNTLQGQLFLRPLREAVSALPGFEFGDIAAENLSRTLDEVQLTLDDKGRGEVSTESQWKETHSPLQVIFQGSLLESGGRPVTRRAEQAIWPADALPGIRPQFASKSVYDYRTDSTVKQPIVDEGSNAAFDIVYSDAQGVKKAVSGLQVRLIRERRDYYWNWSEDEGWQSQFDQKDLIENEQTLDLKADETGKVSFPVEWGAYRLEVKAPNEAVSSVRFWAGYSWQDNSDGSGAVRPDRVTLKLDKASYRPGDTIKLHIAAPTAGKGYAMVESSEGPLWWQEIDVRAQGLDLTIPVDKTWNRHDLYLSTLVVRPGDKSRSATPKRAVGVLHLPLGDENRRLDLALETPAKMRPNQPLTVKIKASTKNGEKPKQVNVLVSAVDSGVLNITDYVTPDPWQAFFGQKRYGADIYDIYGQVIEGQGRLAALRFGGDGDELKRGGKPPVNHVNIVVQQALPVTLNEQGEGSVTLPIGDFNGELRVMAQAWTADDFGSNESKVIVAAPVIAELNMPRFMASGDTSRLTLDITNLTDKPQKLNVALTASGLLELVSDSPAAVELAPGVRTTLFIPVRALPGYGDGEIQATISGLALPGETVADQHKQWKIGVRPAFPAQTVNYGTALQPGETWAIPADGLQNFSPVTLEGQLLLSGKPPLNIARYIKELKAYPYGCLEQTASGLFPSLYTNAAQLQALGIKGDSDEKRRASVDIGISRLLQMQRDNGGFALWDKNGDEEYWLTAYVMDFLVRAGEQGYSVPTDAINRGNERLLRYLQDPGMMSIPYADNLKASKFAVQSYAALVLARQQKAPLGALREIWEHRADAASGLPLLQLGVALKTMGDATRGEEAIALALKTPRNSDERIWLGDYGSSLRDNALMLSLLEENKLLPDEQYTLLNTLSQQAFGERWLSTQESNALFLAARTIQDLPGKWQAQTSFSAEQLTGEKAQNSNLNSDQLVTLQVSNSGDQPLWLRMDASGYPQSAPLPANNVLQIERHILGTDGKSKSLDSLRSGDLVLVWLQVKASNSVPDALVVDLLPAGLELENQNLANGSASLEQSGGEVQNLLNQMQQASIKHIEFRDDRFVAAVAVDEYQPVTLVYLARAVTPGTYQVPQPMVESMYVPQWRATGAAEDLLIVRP
UniProt P75952: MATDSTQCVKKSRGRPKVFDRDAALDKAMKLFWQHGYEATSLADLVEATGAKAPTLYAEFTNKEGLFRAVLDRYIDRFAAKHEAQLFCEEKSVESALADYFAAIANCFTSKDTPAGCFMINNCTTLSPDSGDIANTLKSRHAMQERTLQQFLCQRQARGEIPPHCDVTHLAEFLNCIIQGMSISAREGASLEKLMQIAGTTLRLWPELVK
UniProt P75831: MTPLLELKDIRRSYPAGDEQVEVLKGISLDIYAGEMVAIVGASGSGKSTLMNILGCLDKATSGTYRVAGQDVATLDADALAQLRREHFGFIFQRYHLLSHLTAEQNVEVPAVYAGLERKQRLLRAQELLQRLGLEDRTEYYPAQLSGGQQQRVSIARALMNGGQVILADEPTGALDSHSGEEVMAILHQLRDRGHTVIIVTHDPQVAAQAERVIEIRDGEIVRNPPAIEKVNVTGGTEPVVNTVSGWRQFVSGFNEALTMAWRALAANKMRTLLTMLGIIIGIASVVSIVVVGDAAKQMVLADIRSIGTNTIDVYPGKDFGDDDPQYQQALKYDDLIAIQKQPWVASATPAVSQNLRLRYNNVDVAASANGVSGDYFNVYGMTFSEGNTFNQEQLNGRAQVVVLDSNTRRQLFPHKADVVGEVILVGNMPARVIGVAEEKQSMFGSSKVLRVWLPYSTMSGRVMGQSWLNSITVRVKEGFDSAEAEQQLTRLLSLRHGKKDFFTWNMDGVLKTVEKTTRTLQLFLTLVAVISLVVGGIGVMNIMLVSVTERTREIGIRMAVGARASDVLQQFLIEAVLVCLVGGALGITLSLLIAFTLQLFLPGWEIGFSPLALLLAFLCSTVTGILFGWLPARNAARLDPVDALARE
UniProt P75937: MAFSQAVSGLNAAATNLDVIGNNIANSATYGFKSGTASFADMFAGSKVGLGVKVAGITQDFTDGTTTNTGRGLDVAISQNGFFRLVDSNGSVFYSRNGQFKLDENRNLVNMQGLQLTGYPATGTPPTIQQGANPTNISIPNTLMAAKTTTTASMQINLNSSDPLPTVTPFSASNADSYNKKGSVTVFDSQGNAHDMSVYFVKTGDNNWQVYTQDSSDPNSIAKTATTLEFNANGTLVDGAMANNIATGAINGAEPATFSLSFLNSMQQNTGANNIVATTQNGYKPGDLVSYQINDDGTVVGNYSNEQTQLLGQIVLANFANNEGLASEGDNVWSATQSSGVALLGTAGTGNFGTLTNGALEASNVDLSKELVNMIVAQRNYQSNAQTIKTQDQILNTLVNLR
UniProt P76076: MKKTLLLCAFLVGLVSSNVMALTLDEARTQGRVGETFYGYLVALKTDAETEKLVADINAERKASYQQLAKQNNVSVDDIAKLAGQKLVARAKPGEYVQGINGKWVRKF
UniProt P75691: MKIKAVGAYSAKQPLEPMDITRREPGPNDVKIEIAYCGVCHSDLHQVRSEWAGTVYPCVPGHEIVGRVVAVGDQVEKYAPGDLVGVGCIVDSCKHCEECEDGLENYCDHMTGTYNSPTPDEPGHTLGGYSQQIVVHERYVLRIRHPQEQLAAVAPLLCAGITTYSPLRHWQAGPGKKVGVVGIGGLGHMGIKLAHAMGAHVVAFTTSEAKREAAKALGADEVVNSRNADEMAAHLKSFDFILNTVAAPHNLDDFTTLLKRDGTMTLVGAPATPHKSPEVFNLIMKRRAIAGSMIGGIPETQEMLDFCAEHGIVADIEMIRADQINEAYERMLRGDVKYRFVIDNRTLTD
UniProt P76041: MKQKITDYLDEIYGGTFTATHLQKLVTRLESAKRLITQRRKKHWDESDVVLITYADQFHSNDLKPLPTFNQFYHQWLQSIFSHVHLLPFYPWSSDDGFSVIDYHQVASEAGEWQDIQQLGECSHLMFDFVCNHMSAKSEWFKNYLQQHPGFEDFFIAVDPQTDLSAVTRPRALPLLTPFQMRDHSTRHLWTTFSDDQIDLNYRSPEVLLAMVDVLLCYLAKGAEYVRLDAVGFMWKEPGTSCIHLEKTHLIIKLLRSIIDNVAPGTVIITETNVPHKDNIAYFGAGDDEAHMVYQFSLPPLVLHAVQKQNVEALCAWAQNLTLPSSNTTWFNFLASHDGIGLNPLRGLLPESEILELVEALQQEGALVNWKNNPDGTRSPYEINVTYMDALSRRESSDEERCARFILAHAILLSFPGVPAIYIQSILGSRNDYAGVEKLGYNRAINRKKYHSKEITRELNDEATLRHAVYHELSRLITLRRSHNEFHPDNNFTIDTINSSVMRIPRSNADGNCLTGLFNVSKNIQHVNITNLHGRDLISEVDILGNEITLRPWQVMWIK
UniProt P75988: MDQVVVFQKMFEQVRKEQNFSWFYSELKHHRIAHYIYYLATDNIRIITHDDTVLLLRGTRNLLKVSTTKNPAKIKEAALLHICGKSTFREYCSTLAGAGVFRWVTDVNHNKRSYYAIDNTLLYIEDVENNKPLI
UniProt P76272: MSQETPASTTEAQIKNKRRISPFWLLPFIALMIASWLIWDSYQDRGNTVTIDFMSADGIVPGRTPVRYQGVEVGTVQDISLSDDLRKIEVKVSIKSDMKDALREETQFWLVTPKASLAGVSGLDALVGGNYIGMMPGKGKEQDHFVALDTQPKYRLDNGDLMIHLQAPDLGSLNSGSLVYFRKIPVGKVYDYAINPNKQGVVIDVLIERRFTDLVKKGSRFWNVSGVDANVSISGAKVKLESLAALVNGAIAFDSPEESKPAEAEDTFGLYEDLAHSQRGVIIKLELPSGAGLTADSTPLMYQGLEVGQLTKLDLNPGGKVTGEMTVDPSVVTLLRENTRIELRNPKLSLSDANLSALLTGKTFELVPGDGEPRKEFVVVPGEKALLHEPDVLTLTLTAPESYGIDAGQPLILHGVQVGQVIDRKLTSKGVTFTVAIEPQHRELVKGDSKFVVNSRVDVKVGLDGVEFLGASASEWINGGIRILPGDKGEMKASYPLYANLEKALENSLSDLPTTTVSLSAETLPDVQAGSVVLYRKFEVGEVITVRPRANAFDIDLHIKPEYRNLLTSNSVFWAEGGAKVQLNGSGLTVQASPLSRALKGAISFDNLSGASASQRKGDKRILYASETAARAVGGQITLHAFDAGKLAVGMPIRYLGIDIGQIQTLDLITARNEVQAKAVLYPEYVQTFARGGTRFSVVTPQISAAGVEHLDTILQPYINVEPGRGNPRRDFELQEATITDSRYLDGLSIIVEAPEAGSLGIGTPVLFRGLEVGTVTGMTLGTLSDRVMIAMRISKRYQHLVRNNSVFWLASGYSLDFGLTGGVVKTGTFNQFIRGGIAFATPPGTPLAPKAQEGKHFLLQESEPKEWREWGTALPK
UniProt P76223: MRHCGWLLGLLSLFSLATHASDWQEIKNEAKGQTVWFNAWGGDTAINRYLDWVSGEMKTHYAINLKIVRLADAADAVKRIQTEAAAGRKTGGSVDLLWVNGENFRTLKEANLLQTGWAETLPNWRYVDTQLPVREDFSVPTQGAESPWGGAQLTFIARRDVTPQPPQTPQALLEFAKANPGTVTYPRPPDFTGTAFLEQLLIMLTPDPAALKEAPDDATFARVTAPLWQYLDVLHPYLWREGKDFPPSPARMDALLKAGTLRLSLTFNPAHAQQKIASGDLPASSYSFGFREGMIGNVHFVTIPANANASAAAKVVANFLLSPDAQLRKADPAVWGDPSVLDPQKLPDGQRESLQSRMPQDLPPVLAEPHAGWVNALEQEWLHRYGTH
UniProt P69423: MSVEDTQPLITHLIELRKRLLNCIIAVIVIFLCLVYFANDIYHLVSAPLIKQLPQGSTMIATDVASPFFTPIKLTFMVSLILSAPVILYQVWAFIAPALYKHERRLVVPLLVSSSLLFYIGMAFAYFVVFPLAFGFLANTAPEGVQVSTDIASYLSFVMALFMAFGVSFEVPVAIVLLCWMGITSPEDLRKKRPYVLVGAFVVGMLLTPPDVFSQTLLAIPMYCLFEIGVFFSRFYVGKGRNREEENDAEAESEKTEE
UniProt P76102: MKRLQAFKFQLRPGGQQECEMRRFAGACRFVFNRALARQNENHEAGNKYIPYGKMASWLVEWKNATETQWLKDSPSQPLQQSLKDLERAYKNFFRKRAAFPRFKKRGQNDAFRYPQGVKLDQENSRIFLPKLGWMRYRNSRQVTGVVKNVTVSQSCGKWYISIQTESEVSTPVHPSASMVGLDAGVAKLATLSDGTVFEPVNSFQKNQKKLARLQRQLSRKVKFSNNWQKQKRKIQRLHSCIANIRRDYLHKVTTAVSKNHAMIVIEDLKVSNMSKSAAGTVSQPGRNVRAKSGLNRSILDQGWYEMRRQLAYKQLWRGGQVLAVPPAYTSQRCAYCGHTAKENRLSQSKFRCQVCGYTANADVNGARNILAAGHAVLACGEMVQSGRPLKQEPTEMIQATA
UniProt P76540: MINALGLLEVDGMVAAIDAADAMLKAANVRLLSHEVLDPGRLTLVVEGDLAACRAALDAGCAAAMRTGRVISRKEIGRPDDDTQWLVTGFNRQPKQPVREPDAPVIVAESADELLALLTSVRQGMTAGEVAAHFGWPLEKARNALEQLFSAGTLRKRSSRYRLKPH

Only a part is listed here, and it is no random draw. Small differences around the control level are noise.
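Note: lysate desalted by size exclusion to strip endogenous ATP, peptide intensities built from DIA-NN precursor signals, and peptides missing any value discarded before comparison.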

Compound in the experiment: Nc1ncnc2c1ncn2[C@@H]1O[C@H](COP(=O)(O)OP(=O)(O)OP(=O)(O)O)[C@@H](O)[C@H]1O [adenosine 5'-triphosphate]
The experiment is described as follows: log2 fold change of tryptic peptide abundance, ligand vs vehicle (limited proteolysis) (log2 ratio); higher = more trypsin-susceptible (destabilized). Particulars: ligand concentration: 5 mM; sample: E. coli desalted lysate; replicate design: treated before aliquoting. On the procedure:
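HT-PELSA: desalted E. coli K-12 BW25113 lysate (with 12 mM MgCl2) incubated with 5 mM ATP (pH 7) or water for 30 min at 25 C, then a 4 min trypsin pulse at 22 C. Peptides were quantified by DIA-MS (4 replicates). Value is the peptide log2 fold change (treated/control); negative = stabilized. Scale: negative = ligand-stabilized region.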
For the target “UniProt P76510 (peptide sequence: VILCLTR, peptide start residue: 94)”, the log2 fold change is -0.11.
As for “UniProt P76578 (peptide sequence: AASSENASSAK, peptide start residue: 39)”, the log2 fold change is -0.5.
For the target “UniProt P75952 (peptide sequence: APTLYAEFTNK, peptide start residue: 53)”, the log2 fold change was -0.363.
In the case of “UniProt P75831 (peptide sequence: AQVVVLDSNTR, peptide start residue: 399)” it was 0.0674.
Consider “UniProt P76373 (peptide sequence: QQADVIISNR, peptide start residue: 358)”, for which the log2 fold change was -0.0561.
With “UniProt P75937 (peptide sequence: ELVNMIVAQR, peptide start residue: 370)”, the log2 fold change came out at 0.172.
As for “UniProt P76539 (peptide sequence: RLIEDEEY, peptide start residue: 134)”, the log2 fold change stood at 0.598.
Take “UniProt P76076 (peptide sequence: TDAETEKLVADINAERK, peptide start residue: 46)”: the log2 fold change is -0.477.
As to “UniProt P75691 (peptide sequence: QPLEPMDITR, peptide start residue: 13)”, the log2 fold change was found to be 0.205.
For the target “UniProt P76041 (peptide sequence: ELNDEATLR, peptide start residue: 458)”, the log2 fold change is -0.271.
Consider “UniProt P75988 (peptide sequence: MFEQVRK, peptide start residue: 10)”, for which the log2 fold change came out at 0.339.
In the case of “UniProt P76272 (peptide sequence: GKEQDHFVALDTQPK, peptide start residue: 139)” it was -0.638.
Under “UniProt P76192 (peptide sequence: NYTPINDAK, peptide start residue: 530)” stands -0.352; under “UniProt P76223 (peptide sequence: YLDWVSGEMK, peptide start residue: 49)”, -0.491; under “UniProt P69423 (peptide sequence: NREEENDAEAESEKTEE, peptide start residue: 242)”, -0.224.
Regarding “UniProt P76102 (peptide sequence: FQLRPGGQQECEMR, peptide start residue: 9)”, the log2 fold change is -0.392.
Turning to “UniProt P76540 (peptide sequence: EIGRPDDDTQWLVTGFNRQPK, peptide start residue: 75)”, the log2 fold change came to 0.184.
